# Measured values from PubChem BioAssay AID330 (DTP/NCI, 2004).
# The list does not hold the whole screen: it is rich in T/C values a quarter to a half above the control, in often repeated tests (any T/C) and in doses without a T/C. Other doses and runs of a compound stand elsewhere. T/C is the treated group as % of the vehicle group. Some entries give survivors of the animals treated and no T/C: the source holds a T/C of zero for them, seemingly a mark for toxic or unscored doses. Some survivor counts are full or nearly so, which does not show that the dose was tolerated: survival well below the control is almost never listed, so the zero probably covers shortened survival too. Survivors were counted at the toxicity check, usually on the fifth day, unless a day is given; later deaths do not show. Schedule codes are those of the source, taken here to give the interval after Q, in days (D) or hours (H), and the number of doses after X. Counts like (3×) stand for listed records that agree. Some entries were tested several times; the results are listed from low to high. For survival time, this PubChem deposit counts one and a half times the control or more as active, and values a quarter to a half above the control carry no call in these data; other NCI protocols may use other cut-offs.
# System: P388 leukemia ip, CD2F1 mice, survival T/C
# Test: NCI In Vivo Anticancer Drug Screen. Data for tumor model P388 Leukemia (intraperitoneal) in CD2F1 (CDF1) mice
# Conditions: T/C endpoint: median survival time, higher T/C = longer survival
# [1] = dose: 25.0 mg/kg/injection, schedule: Q01DX005 (ip), vehicle: Klucel (hydroxypropylcellulose) (HPC)
# [2] = dose: 100.0 mg/kg/injection, schedule: Q01DX005 (ip), vehicle: Klucel (hydroxypropylcellulose) (HPC)
# [3] = dose: 200.0 mg/kg/injection, schedule: Q01DX005 (ip), vehicle: Klucel (hydroxypropylcellulose) (HPC)
# [4] = dose: 200.0 mg/kg/injection, schedule: Q01DX009 (ip), vehicle: Klucel (hydroxypropylcellulose) (HPC)
# [5] = dose: 400.0 mg/kg/injection, schedule: Q04DX003 (ip), vehicle: saline with Tween-80
# [6] = dose: 100.0 mg/kg/injection, schedule: Q01DX005 (ip), vehicle: saline with Tween-80
# [7] = dose: 200.0 mg/kg/injection, schedule: Q01DX005 (ip), vehicle: saline with Tween-80
# [8] = dose: 50.0 mg/kg/injection, schedule: Q01DX005 (ip), vehicle: saline with Tween-80
# [9] = dose: 100.0 mg/kg/injection, schedule: Q01DX005 (ip), vehicle: saline
# [10] = dose: 200.0 mg/kg/injection, schedule: Q01DX005 (ip), vehicle: saline
compound,measurement,setting,value
COC(=O)NC1C(C)OC(OC2C/C=C(/C)C3C=CC4C(OC5CC(OC6CC(O)C(OC7CC(O)C(OC)C(C)O7)C(C)O6)C(O)C(C)O5)C(C)CC(C)C4C3(C)/C(O)=C3\C(=O)OC4(CC(C)C(CO)=CC4/C=C\2C)C3=O)CC1(C)[N+](=O)[O-] (stereo not given),T/C,[1],126 % of control
same,T/C,[2],141 and 149 % of control
same,survivor count,[3],0 of 6 and 3 of 6
same,survivor count,"dose: 400.0 mg/kg/injection, schedule: Q01DX005 (ip), vehicle: Klucel (hydroxypropylcellulose) (HPC)",0 of 6
Cc1ccc(NC(=O)N2CC2)cc1NC(=O)N1CC1,T/C,"dose: 3.12 mg/kg/injection, schedule: Q01DX009 (ip), vehicle: Klucel (hydroxypropylcellulose) (HPC)",137 % of control
same,survivor count,"dose: 6.25 mg/kg/injection, schedule: Q01DX009 (ip), vehicle: Klucel (hydroxypropylcellulose) (HPC)",6 of 6
same,survivor count,"dose: 12.5 mg/kg/injection, schedule: Q01DX009 (ip), vehicle: Klucel (hydroxypropylcellulose) (HPC)",6 of 6
same,survivor count,"dose: 25.0 mg/kg/injection, schedule: Q01DX009 (ip), vehicle: Klucel (hydroxypropylcellulose) (HPC)",4 of 6 (2×)
same,survivor count,"dose: 50.0 mg/kg/injection, schedule: Q01DX009 (ip), vehicle: Klucel (hydroxypropylcellulose) (HPC)",0 of 6
same,survivor count,"dose: 100.0 mg/kg/injection, schedule: Q01DX009 (ip), vehicle: Klucel (hydroxypropylcellulose) (HPC)",0 of 6
CC1=C(C)Cn2c(=O)c3cc4ccccc4cc3c(=O)n2C1,survivor count,[4],6 of 6
[Cl][Pd][Cl].[NH-]C(CC(N)=O)C(=O)O (stereo not given),survivor count,[2],3 of 6
same,survivor count,[3],3 of 6
CCCCNC(=O)OCc1c(COC(=O)NCCCC)c(-c2ccc(Cl)c(Cl)c2)n2c1CCC2,T/C,"dose: 25.0 mg/kg/injection, schedule: Q01DX009 (ip), vehicle: saline with Tween-80",138 % of control
same,T/C,"dose: 50.0 mg/kg/injection, schedule: Q01DX009 (ip), vehicle: saline with Tween-80",137 % of control
same,T/C,"dose: 100.0 mg/kg/injection, schedule: Q01DX009 (ip), vehicle: saline with Tween-80","152, 160, 170, 181 % of control"
same,survivor count,"dose: 400.0 mg/kg/injection, schedule: Q01DX009 (ip), vehicle: saline with Tween-80",5 of 6
O=[N+]([O-])c1ccc(-n2[nH]nnc2=S)cc1,survivor count,[5],0 of 6 and 2 of 6
COC(=O)C(Br)CCCC(Br)C(=O)OC (stereo not given),survivor count,"dose: 400.0 mg/kg/injection, schedule: Q01DX009 (ip), vehicle: distilled water + Tween-80",1 of 6
CC1OC1C(=O)Sc1ccccc1 (stereo not given),survivor count,"dose: 100.0 mg/kg/injection, schedule: Q01DX009 (ip), vehicle: saline",0 of 6
CC(=O)c1cc(C)[nH]c1C,survivor count,"dose: 300.0 mg/kg/injection, schedule: Q01DX009 (ip), vehicle: saline with Tween-80",0 of 6
same,survivor count,"dose: 600.0 mg/kg/injection, schedule: Q01DX009 (ip), vehicle: saline with Tween-80",0 of 6
O=C(O)N1CCc2c(sc3ccccc23)C1,survivor count,"dose: 100.0 mg/kg/injection, schedule: Q01DX001 (ip), vehicle: Klucel (hydroxypropylcellulose) (HPC)",1 of 6 and 3 of 6
same,survivor count,"dose: 200.0 mg/kg/injection, schedule: Q01DX001 (ip), vehicle: Klucel (hydroxypropylcellulose) (HPC)",0 of 6
same,survivor count,"dose: 400.0 mg/kg/injection, schedule: Q01DX001 (ip), vehicle: Klucel (hydroxypropylcellulose) (HPC)",0 of 6
CC1(C)N=C(N)N=C(N)N1c1ccc(C(N)=O)cc1,survivor count,[3],0 of 6
Nc1ccc2ncccc2c1[N+](=O)[O-],survivor count,[5],1 of 6
COc1cc(N(CCCl)CCCl)c(OC)cc1C=Nc1cccc(Br)c1,T/C,"dose: 6.25 mg/kg/injection, schedule: Q01DX009 (ip), vehicle: suspension in saline",129 % of control
same,T/C,"dose: 12.5 mg/kg/injection, schedule: Q01DX009 (ip), vehicle: saline",141 % of control
CNCCCC1c2ccccc2C=Cc2ccccc21,survivor count,"dose: 25.0 mg/kg/injection, schedule: Q01DX009 (ip), vehicle: saline",6 of 6
same,survivor count,"dose: 50.0 mg/kg/injection, schedule: Q01DX009 (ip), vehicle: saline",5 of 6
CNC(=O)OCc1c(COC(=O)NC)c(-c2ccc(Cl)c(Cl)c2)n2c1SCC2,T/C,"dose: 12.5 mg/kg/injection, schedule: Q01DX005 (ip), vehicle: saline with Tween-80",126 % of control
same,T/C,"dose: 25.0 mg/kg/injection, schedule: Q01DX005 (ip), vehicle: saline with Tween-80",134 and 137 % of control
same,survivor count,[6],5 of 6 and 6 of 6
same,survivor count,[7],3 of 6
COc1ccc(/C=C/C(=O)C(CN(C)C)CN(C)C)cc1OC,survivor count,"dose: 6.25 mg/kg/injection, schedule: Q01DX005 (ip), vehicle: Klucel (hydroxypropylcellulose) (HPC)",2 of 6
same,survivor count,"dose: 12.5 mg/kg/injection, schedule: Q01DX005 (ip), vehicle: Klucel (hydroxypropylcellulose) (HPC)",0 of 6
same,survivor count,[1],0 of 6
same,survivor count,"dose: 50.0 mg/kg/injection, schedule: Q01DX005 (ip), vehicle: Klucel (hydroxypropylcellulose) (HPC)",0 of 6
same,survivor count,[2],0 of 6
same,survivor count,[3],0 of 6
N#Cc1c(N)nc2c(c(-c3ccc(Cl)cc3)nn2-c2ccccc2)c1C#N,survivor count,"dose: 30.0 mg/kg/injection, schedule: Q01DX005 (ip), vehicle: saline with Tween-80",6 of 6
same,survivor count,"dose: 60.0 mg/kg/injection, schedule: Q01DX005 (ip), vehicle: saline with Tween-80",6 of 6
COc1cc2c(c(NC(C)CCCN=C(N)NC(N)=NC(C)C)c1)NCCC2 (stereo not given),survivor count,[8],0 of 6
same,survivor count,[6],0 of 6
same,survivor count,[7],0 of 6
Cc1cnc2ncn(Cc3c[nH]c(=O)[nH]c3=O)c(=O)c2c1,survivor count,"dose: 100.0 mg/kg/injection, schedule: Q01DX001 (ip), vehicle: saline with Tween-80",1 of 6
same,survivor count,"dose: 200.0 mg/kg/injection, schedule: Q01DX001 (ip), vehicle: saline with Tween-80",0 of 6
same,survivor count,"dose: 400.0 mg/kg/injection, schedule: Q01DX001 (ip), vehicle: saline with Tween-80",0 of 6
COc1ccc(Cc2cc3c(cc2OCC(=O)Nc2ccccn2)OCO3)cc1,survivor count,[8],6 of 6
O=[N+]([O-])c1ccc(-[n+]2ccc3ccccc3c2)c([N+](=O)[O-])c1,survivor count,[9],0 of 5
same,survivor count,[10],0 of 5
CSc1cccc(NC(=O)Oc2cc(C)c(Cl)c(C)c2Cl)c1,survivor count,"dose: 50.0 mg/kg/injection, schedule: Q01DX009 (ip), vehicle: DMSO",1 of 6
same,survivor count,"dose: 100.0 mg/kg/injection, schedule: Q01DX009 (ip), vehicle: DMSO",0 of 6
same,survivor count,"dose: 200.0 mg/kg/injection, schedule: Q01DX009 (ip), vehicle: DMSO",0 of 6
O=C(Nc1nccs1)Nc1cc(C(F)(F)F)ccc1Cl,survivor count,[4],0 of 6
COc1cc2c(c(OC)c1OC)-c1ccc(SC)c(=O)cc1[C@@H](NC1OCC(O)C(O)C1O)CC2 (stereo not given in full),T/C,"dose: 12.0 mg/kg/injection, schedule: Q01DX009 (ip), vehicle: other",145 % of control
same,T/C,"dose: 36.0 mg/kg/injection, schedule: Q01DX009 (ip), vehicle: other",148 % of control
N/N=C1/C=Cc2cccc3cccc1c23,survivor count,[7],4 of 6
CN=C(c1ccc(NC(=O)c2ccc(C(=O)Nc3ccc(C(=NC)N(C)C)cc3)c(Cl)c2)cc1)N(C)C,survivor count,"dose: 6.25 mg/kg/injection, schedule: Q01DX005 (ip), vehicle: saline",0 of 6
same,survivor count,"dose: 12.5 mg/kg/injection, schedule: Q01DX005 (ip), vehicle: saline",0 of 6
same,survivor count,"dose: 50.0 mg/kg/injection, schedule: Q01DX005 (ip), vehicle: saline",0 of 6
same,survivor count,[9],0 of 6
same,survivor count,[10],0 of 6
CC(=O)OC(C)(C)/C=C/C(=O)[C@](C)(O)[C@H]1[C@H](O)C[C@@]2(C)[C@@H]3CC=C4[C@@H](C[C@H](O)C(=O)C4(C)C)[C@]3(C)C(=O)C[C@]12C,survivor count,"dose: 4.0 mg/kg/injection, schedule: Q01DX009 (ip), vehicle: saline with Tween-80",4 of 6
